This note sets out measurements from publication PMC7819943, “Rice protein-binding microarrays: a tool to detect cis-acting elements near promoter regions in rice”.

By UniProt entry, the sequences of proteins in these tests, tags left out.
UniProt Q0JBA9, entry or part of it: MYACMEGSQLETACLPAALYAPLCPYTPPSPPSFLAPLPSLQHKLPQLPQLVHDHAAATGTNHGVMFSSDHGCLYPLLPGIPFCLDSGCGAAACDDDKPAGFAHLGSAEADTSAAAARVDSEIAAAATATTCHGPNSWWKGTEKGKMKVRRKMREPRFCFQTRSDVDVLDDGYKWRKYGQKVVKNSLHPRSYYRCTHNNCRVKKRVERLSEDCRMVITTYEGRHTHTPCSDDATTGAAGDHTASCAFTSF

The other results are listed elsewhere or left out.

The target in this test is OsWRKY34 (Oryza sativa, UniProt Q0JBA9 1-250). The experiment in a line: protein-binding microarray (RPBM); PBS, 2% BSA, 51.3 ng/ul salmon testes DNA, 50 uM zinc acetate, 200 nM TF, 25 C, 1 h; high values mean tight binding. Conditions: protein: recombinant; tags: N-terminal polyhistidine and DsRed monomer fusion (pET32a); label: CyDye5-dUTP incorporated in the synthesized complementary strand; 3' TTTTT single-stranded linker to array surface; dsDNA, one strand shown. The method, boiled down:
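An Axon 4000B scanner gave the binding signal as per-feature fluorescence intensity in arbitrary units. This followed washing of a custom Agilent array that had been incubated for 1 h at 25 °C with 200 nM protein in PBS, 2% BSA, salmon testes DNA and 50 µM zinc acetate. The proteins were transcription factors fused at the N-terminus to polyhistidine and DsRed, expressed in E. coli BL21-CodonPlus and purified on Ni–NTA.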
For the sequence “TTGTATATGAATCCGGACATCTAAACTAGGCATAAATCCACGGAGTCACCTAGTGCAG”, the binding signal was 8020 fluorescence intensity (a.u.). On to “CGCTTCACTCACCTCGTCGTCTTCACTTCACTTCACGCACCGGAGTCACCTAGTGCAG”, for which the binding signal was 14300 fluorescence intensity (a.u.).

In the case of “ACTCCTGATCCCATGTCACCGACAACATGCATATAGAAGTCGGAGTCACCTAGTGCAG”, the binding signal was 8320 fluorescence intensity (a.u.). Then “AGAGCCGAACCCACCATTCCTGTACATATCGTCCTCCTCTCGGAGTCACCTAGTGCAG”, with 9500 fluorescence intensity (a.u.); and “ACATATGCTAAAAAGTCAACGGTGTCAAACATTTTGAAACCGGAGTCACCTAGTGCAG”, with 15900 fluorescence intensity (a.u.); and “CGTCTCTCTCTCTCGCCCAAGTCCACACTTCGTCTCTCTCCGGAGTCACCTAGTGCAG”, with 8090 fluorescence intensity (a.u.).

With “TTGTTGTTTACCGTCACACTTAATTACCAGGTCATTTACACGGAGTCACCTAGTGCAG”, the binding signal was 9280 fluorescence intensity (a.u.).

As to “CTGTGAAAGGGAAGCTCGATTTCGTTGGTTTGGGGAGGAACGGAGTCACCTAGTGCAG”, the binding signal was 9280 fluorescence intensity (a.u.). As for “TCTTGTGTGTTTGTTCCGATTTGCTGCTCAATCTGTCCATCGGAGTCACCTAGTGCAG”, the binding signal was 10300 fluorescence intensity (a.u.). Then “GGGTTGGGTCTCTCTCTCTCTCGGTGTCGCCGTCTTGGCTCGGAGTCACCTAGTGCAG”, with 14800 fluorescence intensity (a.u.); and “CTGCATTCCGAGGGCTCGGGTGGTGGTGGTGGTGGTAGCTCGGAGTCACCTAGTGCAG”, with 8440 fluorescence intensity (a.u.).

For the sequence “GGACTTGTAATTCAGAGCCTACTGTTTTTTTTTAAATCTACGGAGTCACCTAGTGCAG”, the binding signal is 10100 fluorescence intensity (a.u.). “ACGCGCACTACTTTCCTAACTCACATCTCTTGTTTTCCACCGGAGTCACCTAGTGCAG”: the binding signal is 11000 fluorescence intensity (a.u.). Then “CACTATTCACGTTCAACGTTTGACCGTTTATCTTATTTGACGGAGTCACCTAGTGCAG”, with 8090 fluorescence intensity (a.u.); and “TCTCTCATGTCTGCCTTTTGAGCACATAAACACACCACCCCGGAGTCACCTAGTGCAG”, with 8610 fluorescence intensity (a.u.); and “AGCACCAGTTGACCGCATTTCATTTCCCTCCTCCCTCAATCGGAGTCACCTAGTGCAG”, with 8380 fluorescence intensity (a.u.). Then “ACAATGCCACCCTTACATGCCGGGAGACCGGGGCCTCTGCCGGAGTCACCTAGTGCAG”, with 9600 fluorescence intensity (a.u.); and “CGTGTGGTTGGTGTGAGAGAATGAAATGGATGAAATCTGGCGGAGTCACCTAGTGCAG”, with 9450 fluorescence intensity (a.u.). For the sequence “AAAACCCCAGATGGCACCCACCCACAACGCAGCCTTCGCCCGGAGTCACCTAGTGCAG”, the binding signal was 8080 fluorescence intensity (a.u.). Then “TACATAGTTGGATGTGGGATGGTGGTTAGGGGTAGAATGACGGAGTCACCTAGTGCAG”, with 9140 fluorescence intensity (a.u.); and “TTGTGGAGCTCCCTTATGAATGTATTTGCTCTCATTGAATCGGAGTCACCTAGTGCAG”, with 8410 fluorescence intensity (a.u.). Then “CCTTTGACTTTTTGATAAACGTTTGACCTTTCGTCTTATTCGGAGTCACCTAGTGCAG”, with 22800 fluorescence intensity (a.u.).

Take “ATCCGAATCCGCTCCATTTTCACCCCTATCTGCTACATTACGGAGTCACCTAGTGCAG”: the binding signal was 8490 fluorescence intensity (a.u.). Then “ACCAAATCGCGTTTAATTTTTCGCGCGCCTCCTCTAAACCCGGAGTCACCTAGTGCAG”, with 8150 fluorescence intensity (a.u.); and “ACTGCATGCTTAGTTGATTACTCTCTCCATTCCATTTTAACGGAGTCACCTAGTGCAG”, with 9190 fluorescence intensity (a.u.); and “ACCATCCACACAAGTTCTTTATTTCTGAGTAAATCGCACTCGGAGTCACCTAGTGCAG”, with 9760 fluorescence intensity (a.u.). Consider “CACACTATAGCTAGTACTAGTACTAGTACTACTTAAACTACGGAGTCACCTAGTGCAG”, for which the binding signal was 8120 fluorescence intensity (a.u.). Then “ATAATAATTAATAAAGATTTTGTTGTTGGTTTGGGGATTTCGGAGTCACCTAGTGCAG”, with 9550 fluorescence intensity (a.u.); and “GTAAGTATTATTTTTTCCGTGTCTTCGTCCTATGTGGTAGCGGAGTCACCTAGTGCAG”, with 10900 fluorescence intensity (a.u.); and “GGTTCGCCGCTTAGCTCGCTTGTATCCCCGTACGAGTACTCGGAGTCACCTAGTGCAG”, with 9490 fluorescence intensity (a.u.). Consider “CGGTGTAGTCCAGTTCGGCGGTCTCGTCAATCGACCTCGACGGAGTCACCTAGTGCAG”, for which the binding signal is 8110 fluorescence intensity (a.u.). Then “TGTACCGTTGGTTTCCGTCTTTTTAAACATGTGAGAGGGGCGGAGTCACCTAGTGCAG”, with 9410 fluorescence intensity (a.u.); and “ACTTGTCCATTTCTCAGTTAAAGTTTGTATCATTATGTCTCGGAGTCACCTAGTGCAG”, with 8030 fluorescence intensity (a.u.); and “CCAATCTCACTTGCGTCTCATTTTTTCCCAACTTACTAAACGGAGTCACCTAGTGCAG”, with 10800 fluorescence intensity (a.u.). Then “TAGCTCGTCTTTCGTCTCTGTGTGCGCGTGTTGTTTTTTTCGGAGTCACCTAGTGCAG”, with 14100 fluorescence intensity (a.u.); and “GGGGAGTATCGGTTCTGGCATCGTACTAAACGGTATTGTCCGGAGTCACCTAGTGCAG”, with 9220 fluorescence intensity (a.u.); and “TGACGCCGTTAACTTTTTCTCACATATTTGACTATTTGTCCGGAGTCACCTAGTGCAG”, with 10900 fluorescence intensity (a.u.). With “AACGAGGGATGGGTAGTAAGGGATGGGAACTAATCTTGCCCGGAGTCACCTAGTGCAG”, the binding signal is 8530 fluorescence intensity (a.u.). As for “CCACCGCCGATCCTTTCGTTCCCCACTCTTCCAGAACGGACGGAGTCACCTAGTGCAG”, the binding signal was 8490 fluorescence intensity (a.u.).

On to “CGAACCCCGACGACCACCACCGCCCGGCCGCCGCCGCCGCCGGAGTCACCTAGTGCAG”, for which the binding signal is 8420 fluorescence intensity (a.u.).

“ATTTTTACTTATTTTTTATCACTCACTTTGATACCTCAAACGGAGTCACCTAGTGCAG”: the binding signal was 8730 fluorescence intensity (a.u.). Then “ATCGGGTGAAGGGAAGGGTGTGTTTTAGTTCAAGCTAAAACGGAGTCACCTAGTGCAG”, with 11000 fluorescence intensity (a.u.).
